Measurements taken from paper PMC10618295.
These are yes or no findings as the source states them, for the method shown. In cells and extracts the contact can be indirect.

By UniProt entry, the sequences of proteins in these tests, tags left out.
UniProt Q96EB6: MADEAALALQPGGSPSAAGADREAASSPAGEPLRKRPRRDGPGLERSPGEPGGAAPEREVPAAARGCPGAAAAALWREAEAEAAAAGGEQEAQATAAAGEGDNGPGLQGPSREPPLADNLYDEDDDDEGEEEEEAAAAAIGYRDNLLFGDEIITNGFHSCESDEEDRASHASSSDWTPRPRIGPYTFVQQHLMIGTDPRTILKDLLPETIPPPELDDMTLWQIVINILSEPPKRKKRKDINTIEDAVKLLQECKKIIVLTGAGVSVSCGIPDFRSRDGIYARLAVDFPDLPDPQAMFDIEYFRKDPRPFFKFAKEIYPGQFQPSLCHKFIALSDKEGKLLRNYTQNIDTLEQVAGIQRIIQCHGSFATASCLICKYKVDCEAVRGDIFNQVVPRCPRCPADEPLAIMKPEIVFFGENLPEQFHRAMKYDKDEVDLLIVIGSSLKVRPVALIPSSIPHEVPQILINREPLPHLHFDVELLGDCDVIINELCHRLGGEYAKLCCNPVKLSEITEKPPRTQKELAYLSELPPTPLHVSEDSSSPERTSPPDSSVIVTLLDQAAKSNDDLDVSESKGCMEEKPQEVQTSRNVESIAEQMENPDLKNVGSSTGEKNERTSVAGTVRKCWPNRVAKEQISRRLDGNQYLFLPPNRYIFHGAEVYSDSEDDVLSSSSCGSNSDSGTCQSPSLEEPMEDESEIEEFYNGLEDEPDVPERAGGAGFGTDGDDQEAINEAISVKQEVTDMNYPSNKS
UniProt P01106: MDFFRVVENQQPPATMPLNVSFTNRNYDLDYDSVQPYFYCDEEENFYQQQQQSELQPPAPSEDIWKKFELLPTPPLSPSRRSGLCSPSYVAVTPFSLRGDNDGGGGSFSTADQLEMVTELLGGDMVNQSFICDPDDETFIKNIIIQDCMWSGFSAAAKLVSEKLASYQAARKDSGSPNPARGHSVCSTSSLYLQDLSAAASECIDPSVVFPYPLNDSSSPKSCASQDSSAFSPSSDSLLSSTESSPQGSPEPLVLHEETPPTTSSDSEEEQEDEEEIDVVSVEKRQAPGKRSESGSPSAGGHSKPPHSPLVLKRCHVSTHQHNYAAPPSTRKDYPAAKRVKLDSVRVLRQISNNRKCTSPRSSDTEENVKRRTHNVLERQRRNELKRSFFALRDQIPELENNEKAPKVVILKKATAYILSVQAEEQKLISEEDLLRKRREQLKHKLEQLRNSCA

Target: SIRT1 (anti-SIRT1 immunoprecipitation of Supplementary Fig. 6c) (UniProt Q96EB6)
Assay: co-IP; precipitation with an anti-SIRT1 antibody (Supplementary Fig. 6c); cells not given

binding: no binding
Substance: c-Myc (from UniProt P01106 1-454) (other; other documents disagree on this pair)
